Measured data: PubChem BioAssay AID1224830 (NIAID, 2016)

- Purpose: 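Host factors that control LPS-induced TNF expression in human macrophages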 (primary screen)
- Cells: human THP-1 monocytic leukaemia cells, TNF dual-luciferase reporter clone, PMA-differentiated to macrophage-like cells
- Reagent: siRNA pool against human genes, 50 nM
- Timing: LPS for 4 h, given about 3 days after siRNA transfection
- Treatment: bacterial LPS (TLR4 ligand), 10 ng/ml
- Read-out: 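Ratio of firefly to renilla light, scaled to the plate median and expressed as a robust z-score per replicate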
- Scale: TNF reporter robust z-score: higher = stronger TNF reporter response to LPS
- Hit rule: 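Each well counts as active if its z-score is over 2.8 or under -1.5; controls are left without a call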
The whole screen tested about 18,000 reagents; this is a random part of them. Over the whole deposit, about 2,900 (16%) got an active call. 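Calls are made per well; low scores hint the gene aids the LPS response, high scores that it dampens it.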 A number with no mark means an inactive call. Repeated entries: four replicate wells of each siRNA pool.

| Target gene | TNF reporter robust z-score |
| --- | --- |
| DEPP1 | 1.49 |
| DEPP1 | 0.22 |
| DEPP1 | -0.72 |
| DEPP1 | -0.47 |
| OR2G3 | 0.75 |
| OR2G3 | 0.44 |
| OR2G3 | 0 |
| OR2G3 | 1.19 |
| TMEM79 | -0.48 |
| TMEM79 | 0.85 |
| TMEM79 | 0.64 |
| TMEM79 | 0.45 |
| ERCC6L | 0.17 |
| ERCC6L | 0.59 |
| ERCC6L | 0.1 |
| ERCC6L | 1.5 |
| GALNT1 | -0.07 |
| GALNT1 | 0.31 |
| GALNT1 | -0.49 |
| GALNT1 | -0.46 |
| TGFBI | 1.68 |
| TGFBI | 0.5 |
| TGFBI | 0.81 |
| TGFBI | -0.12 |
| SEMA3B | 0.27 |
| SEMA3B | 1.19 |
| SEMA3B | 0.93 |
| SEMA3B | 0.84 |
| FGF1 | -0.11 |
| FGF1 | 0.87 |
| FGF1 | 1.91 |
| CXCL16 | -0.74 |
| CXCL16 | 0.27 |
| CXCL16 | -0.37 |
| CXCL16 | 0.59 |
| GPC5 | -0.22 |
| GPC5 | -0.56 |
| GPC5 | -0.64 |
| GPC5 | -0.1 |
| FAH | -0.76 |
| FAH | 0.54 |
| FAH | -1.19 |
| FAH | -0.41 |
| PRDM13 | -1.4 |
| PRDM13 | -1.26 |
| PRDM13 | -0.89 |
| PRDM13 | -0.54 |
| NXPH3 | -0.54 |
| NXPH3 | 0.97 |
| NXPH3 | -0.28 |
| NXPH3 | -1.08 |
| SIRAL1 | -1.2 |
| SIRAL1 | 0.77 |
| SIRAL1 | -1.25 |
| SIRAL1 | 0.43 |
| CYRIA | -0.47 |
| CYRIA | 0.55 |
| CYRIA | -0.66 |
| CYRIA | -0.32 |
| DDN | -0.72 |
| DDN | -0.41 |
| DDN | -0.09 |
| DDN | -0.45 |
| SLC25A47 | -0.92 |
| SLC25A47 | 6.63 (active) |
| SLC25A47 | 0.34 |
| SLC25A47 | 0.78 |
| ANKRD13A | -0.72 |
| ANKRD13A | 0.52 |
| ANKRD13A | 0.03 |
| ANKRD13A | -0.16 |
| CCNJ | -1.13 |
| CCNJ | -0.66 |
| CCNJ | -0.19 |
| CCNJ | 0.1 |
| FOXA3 | -0.06 |
| FOXA3 | 0.11 |
| FOXA3 | 0.44 |
| FOXA3 | 0.98 |
| CASS4 | -0.25 |
| CASS4 | 0.43 |
| CASS4 | -0.02 |
| CASS4 | 1.06 |
| GLRX5 | -0.91 |
| GLRX5 | -0.78 |
| GLRX5 | -0.4 |
| GLRX5 | -1.41 |
| RMDN1 | 0.68 |
| RMDN1 | 0.54 |
| RMDN1 | 2.2 |
| RMDN1 | 4.05 (active) |
| SYPL1 | 0.19 |
| SYPL1 | 0.2 |
| SYPL1 | 0.29 |
| SYPL1 | -0.07 |
| ACOT13 | 1.35 |
| ACOT13 | 0.95 |
| ACOT13 | 0.62 |
| ACOT13 | 0.07 |
| COL6A1 | -0.83 |
| COL6A1 | -0.6 |
| COL6A1 | -0.84 |
| COL6A1 | 0 |
| GPRIN3 | 1.34 |
| GPRIN3 | -0.34 |
| GPRIN3 | -0.04 |
| GPRIN3 | 1.04 |
| KRT83 | -0.43 |
| KRT83 | 0.07 |
| KRT83 | 0.6 |
| KRT83 | -0.41 |

In a second layout: entries from further up
Target gene	TNF reporter robust z-score
GLRX5	-0.78
GLRX5	-0.4
GLRX5	-1.41
RMDN1	0.68
RMDN1	0.54
